The values that follow come from patent US12378220B2, “WNT signaling pathway inhibitors for treatments of disease” (University of Maryland, Baltimore, priority 2016, dated 2025).

For one data set, the system named is Wnt/β-catenin pathway. The data set can be described thus: dual-luciferase TCF/LEF reporter assay, LiCl-activated, HEK293 cells. Type of data set: cell-based. The settings on record: for IC50: Homo sapiens. As for the experimental part:
Lithium chloride (LiCl), which has been previously established as an activator of the Wnt/β-catenin pathway through its direct and indirect effects on GSK3β was used for pathway activation. The inhibition of the Wnt/β-catenin pathway by a compound may be determined after its incubation with cells for 24 hours.
The assay provided herein is a dual-luciferase assay to measure Wnt/β-catenin pathway activation using a TCF/LEF responsive reporter construct similar to that described previously (Thorne et al., 2010).
For orientation: A reporter such as luciferase makes a cellular process visible.

The nature of data set [1]: pilot pharmacokinetic study, single IV and oral administration. The text has this:
Representative data from each group is shown.
Blood samples were collected at multiple time points. […] Ultra-performance liquid chromatography system with a triple quadruple detector (UPLC/TQD) was used for compound quantitation.

The subject of data set [2] is C57BL/6 mice on high-fat diet. The settings on record: 0.5 mg/kg/3 days. The text has this: C57BL/6 mice (n=6/group) were put either on high-fat (HF) or normal chow (NC) diet.
In data set [3] the test system is Madin-Darby Canine Kidney (MDCK) epithelial cell monolayer.
The subject of the next data set is HEK293 cells. The data set can be described thus: cytotoxicity, Cell Counting Kit-8 colorimetric assay. The settings on record: Homo sapiens, HEK293, read-out: anti-proliferation IC50. (Tetrazolium assays rely on reduction of a dye to a coloured formazan, in cell work by metabolically active cells.)

SMILES strings stand for the structures. Like-named read-outs stand apart in the source and are kept apart here. A value given as a limit tells only on which side of the number the result lay.

Regarding `Cc1cc(/C=C/c2ccc3cc(N(C)C)ccc3[n+]2C)c(C)n1-c1ccccc1` [Pyrvinium, pyrvinium, reference compound], the “remaining Wnt signaling activity (or RLU %)” value with Wnt/β-catenin pathway is 29.1%. In addition, the IC50 in the data set with Wnt/β-catenin pathway (HEK293, read-out: IC50 (nM) or remaining activity at 1 μM: IC50) turned out to be 293 nM; in the data set with Wnt/β-catenin pathway (HEK293, read-out: IC50, Wnt/β-catenin pathway inhibition) it was 273 nM; in the data set on Wnt/β-catenin pathway (HEK293, read-out: 50% of inhibition (IC50)), 294 nM; in the data set on HEK293 cells, 2000 nM. Further, in data set [1] (oral, mice), the absorption entry is reported as “little or no absorption”. The “death after intravenous administration in PK study” value in data set [1] (pyrvinium pamoate 2 mg/kg IV) was “died after thirty minutes”. Further, the oral half-life entry in data set [1] (pyrvinium pamoate 2 mg/kg oral, mice) is given as “about one”. Moreover, in data set [2], the “overt toxicity on repeated dosing” value is listed as “overt toxicity was not observed”. The “apical-to-basolateral and basolateral-to-apical flux” value in data set [3] is reported as “below the limit of detection”. In the data set with C57BL/6 mice (single IV dose 2 mg/kg, preliminary survival study), the “time to death after single dose” value was ≤ 6 h. Further, in the data set on C57BL/6 mice (single dose of 2 mg/kg), the “lethality of single dose” value was “caused mouse death”.
